From article doi:10.1101/825828
These are yes or no findings as the source states them, for the method shown. In cells and extracts the contact can be indirect. Some entries that bind do so weakly or less than the wild type.

Amino acid sequences for entries named in this document (tags omitted).
UniProt O60238: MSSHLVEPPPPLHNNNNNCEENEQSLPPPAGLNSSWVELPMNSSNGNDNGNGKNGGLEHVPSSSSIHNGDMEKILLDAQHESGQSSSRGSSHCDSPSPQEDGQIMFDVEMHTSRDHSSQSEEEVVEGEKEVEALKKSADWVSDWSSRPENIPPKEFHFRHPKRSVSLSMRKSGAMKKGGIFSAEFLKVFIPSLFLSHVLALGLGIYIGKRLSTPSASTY
UniProt P31946: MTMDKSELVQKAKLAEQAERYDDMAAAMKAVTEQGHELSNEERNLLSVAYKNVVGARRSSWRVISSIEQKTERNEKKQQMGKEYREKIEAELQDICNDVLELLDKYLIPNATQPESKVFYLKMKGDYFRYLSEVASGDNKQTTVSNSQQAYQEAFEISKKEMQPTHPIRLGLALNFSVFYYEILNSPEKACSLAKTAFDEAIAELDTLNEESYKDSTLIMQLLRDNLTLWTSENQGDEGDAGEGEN

Target: Myc-tagged Nix (UniProt O60238)
Assay: co-IP

“HA-tagged 14-3-3ß (from UniProt P31946 1-246)” was tested. Which binding did it give?
The binding was “binds”.
